Drawing on publication PMC9177958, “Structures of nonsense-mediated mRNA decay factors UPF3B and UPF3A in complex with UPF2 reveal molecular basis for competitive binding and for neurodevelopmental disorder-causing mutation” (Nucleic Acids Research, 2022), this text covers binding for one molecule.

These are yes or no findings as the source states them, for the method shown.

For the assay, the target named is T1, biotinylated Avi-UPF2-MIF4GIII (UniProt Q9HAU5 761-1054, biotin on the Avi tag (BirA)).
T1 construct: UPF2, third middle-domain of eukaryotic initiation factor 4G (MIF4GIII), residues 761-1054; Avi tag added by site-directed mutagenesis to UPF2-MIF4GIII; also called immobilized UPF2-MIF4GIII; source: E. coli BL21 Rosetta2(DE3), purified (Ni-NTA, TEV, reverse IMAC, ion exchange); biotinylated with BirA, SEC
T1 sequence (looked up): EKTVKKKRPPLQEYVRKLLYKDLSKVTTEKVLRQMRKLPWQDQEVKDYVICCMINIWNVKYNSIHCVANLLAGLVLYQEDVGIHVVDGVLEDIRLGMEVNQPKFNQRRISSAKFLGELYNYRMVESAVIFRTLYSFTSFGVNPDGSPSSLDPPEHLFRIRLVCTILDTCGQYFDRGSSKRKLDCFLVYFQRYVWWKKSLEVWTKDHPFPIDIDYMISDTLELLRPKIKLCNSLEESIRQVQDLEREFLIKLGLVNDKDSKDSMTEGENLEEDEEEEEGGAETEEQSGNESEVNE
As to the kind of experiment: SPR; 350 RU biotinylated Avi-UPF2-MIF4GIII immobilised on an SA chip (Biacore T200); UPF3B and UPF3A constructs injected; 15°C; 300 mM NaCl, 25 mM HEPES pH 7.4, 0.25 mM TCEP, 0.05% Tween-20; global fit, 1:1 binding model; both purified. In general terms: Surface plasmon resonance follows binding to a sensor surface in real time, without labels.

B1: UPF3A-58–173-Iso2 (domain or fragment, UniProt Q9H1J1-2 58-173)
chain: KPREEKRTALSKVVIRRLPPGLTKEQLEEQLRPLPAHDYFEFFAADLSLYPHLYSRAYINFRNPDDILLFRDRFDGYIFLDSKDPEYKKFLETYCVEEEKTSANPETLLGEMEAKT
B1: the binding result is “no binding”.
